Assay results reported in patent US8802235B2, “Drug and imaging agent delivery compositions and methods” (priority 2012, dated 2014).

Tested on: MCF-7 cells
Experiment: Cell growth inhibition (resazurin blue), MCF-7
Format: cell-based, human
Settings: 72 hours after drug addition
Experimental: Plates were seeded with 3,000 cells/well in 100 μL of media (12 replicates/sample). Drug or conjugate solutions were applied after 24 hours. […] The in vitro anti-proliferative activities of cisplatin, NO-donating prodrug, and their star polymer-based conjugates, including acid-Pt, acid-NO, and combinational acid-Pt/acid-NO were evaluated in cell culture using a human breast cancer cell line, MCF-7. […] The acid-Pt appeared to be less cytotoxic than cisplatin in the cells. This is likely due to the slow release of the active drug, which was not unexpected for a sustained-delivery platform. One of the obstacles that has not yet been overcome in infusion chemotherapy is the poor tumor penetration and accumulation of small-molecule anti-cancer agents. Usually the majority of the chemotherapeutics have been cleared from systemic circulation, via the kidneys, before a significant concentration of the anti-cancer agent is achieved in the tumorigenic tissues. However, the acid-Pt and acid-NO nanoconjugates may greatly enhance the intratumoral drug concentration compared to the normal tissues due to the Enhanced Permeability and Retention effect (EPR), in which nanoformulations tend to penetrate tumors more effectively via leaky, fenestrated tumor blood vessels. […]

N.N.[Cl][Pt][Cl] [cisplatin]
IC50: 20 ± 4 µM
